Assay results taken from the supplement of paper PMC8975748.
Counter-ions that a name gives are not always drawn. ± gives the standard deviation of the averaged measurements. The list shows a part of the results. These are raw signals, not scaled to a control.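 The yeast community starts from one strain carrying four plasmids, each with an amino-acid or uracil synthesis gene and a fluorescent protein. Random plasmid loss creates mixed prototroph and auxotroph subpopulations. Cells were fixed and counted by automated confocal fluorescence imaging, and DMSO-treated wells served as the vehicle reference.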

System: Saccharomyces cerevisiae BY4741 SeMeCo community
Test: imaged cell count per well (cells); higher = more cells
Settings: 10 µM; 24 h; SM minimal medium
Description: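 Same SeMeCo high-content imaging drug screen: Selleck FDA-approved drugs at 10 µM, 24 h in SM medium, 384-well plates, 3 replicates.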

Compound | imaged cell count per well
CCOC(=O)C1=C(COCCN)NC(C)=C(C(=O)OC)C1c1ccccc1Cl (configuration not stated) [Amlodipine Besylate] | 24600 ± 4400
C#CCN[C@@H]1CCc2ccccc21 [Rasagiline] | 22300 ± 3200
CC(C(O)c1ccc(O)cc1)N1CCC(Cc2ccccc2)CC1 (configuration not stated) [Ifenprodil Tartrate] | 27500 ± 5800
O=C(O)c1cc(=O)c2c(OCC(O)COc3cccc4oc(C(=O)O)cc(=O)c34)cccc2o1 [Disodium Cromoglycate] | 20800 ± 10000
CC(C(=O)O)c1ccc2c(c1)Cc1cccnc1O2 (configuration not stated) [Pranoprofen] | 20200 ± 4600
CC1(C)S[C@@H]2[C@H](NC(=O)Cc3ccccc3)C(=O)N2[C@H]1C(=O)O [Penicillin G Sodium] | 17200 ± 11000
C[n+]1ccccc1C=NO [Pralidoxime Iodide] | 26400 ± 4900
CC1(C)S[C@@H]2[C@H](NC(=O)[C@H](N)c3ccccc3)C(=O)N2[C@H]1C(=O)O [Ampicillin Trihydrate] | 27000 ± 9500
CCCCCCCCc1ccc(CCC(N)(CO)CO)cc1 [Fingolimod] | 29000 ± 5600
C=CC[N+]1([C@H]2C[C@H]3[C@@H]4CC[C@H]5C[C@H](O)[C@@H](N6CCOCC6)C[C@]5(C)[C@H]4CC[C@]3(C)[C@H]2OC(C)=O)CCCC1 [Rocuronium Bromide] | 24400 ± 5200
CCc1cc(C(N)=S)ccn1 [Ethionamide] | 21300 ± 11000
CCCCCOc1ccccc1/C(=C\SC)n1ccnc1 [Neticonazole Hydrochloride] | 3970 ± 1400
CC1(C)S[C@@H]2[C@H](NC(=O)COc3ccccc3)C(=O)N2[C@H]1C(=O)O [Penicillin V potassium salt] | 32200 ± 2500
Nc1c(CC(=O)O)cccc1C(=O)c1ccccc1 [Amfenac Sodium Monohydrate] | 19600 ± 8100
NCc1ccccc1CC(=O)N[C@@H]1C(=O)N2C(C(=O)O)=C(CSc3nnnn3CC(=O)O)CS[C@H]12 [Ceforanide] | 30800 ± 2300
C[C@@H]1O[C@@H]1P(=O)(O)O [Fosfomycin Disodium] | 24300 ± 3300
O=C1c2cccc3c2[C@H](CCC3)CN1[C@@H]1CN2CCC1CC2 [Palonosetron HCl] | 24400 ± 4500
Oc1c(Cl)cc(Cl)cc1Sc1cc(Cl)cc(Cl)c1O [Bithionol] | 6690 ± 1600
CC1=Nc2ccc(Cl)cc2S(=O)(=O)N1 [Diazoxide] | 30400 ± 1800
Cc1cccc(C)c1OCC(C)N (configuration not stated) [Mexiletine HCl] | 26200 ± 3300
CO[C@@H]1[C@H](OC(=O)/C=C/C=C/C=C/C=C/C(=O)O)CC[C@]2(CO2)[C@H]1[C@@]1(C)O[C@@H]1CC=C(C)C [Fumagillin] | 24500 ± 2000
CCCCCCCCCCCC(=O)O [Lauric Acid] | 28000 ± 5100
Nc1nc(O)c2ncn(CCC(CO)CO)c2n1 [Penciclovir] | 26700 ± 14000
Nc1ccc(S(=O)(=O)Nc2ncccn2)cc1 [Sodium sulfadiazine] | 24800 ± 3000
C=C[C@H]1CN2CC[C@H]1C[C@@H]2[C@@H](O)c1ccnc2ccc(OC)cc12 [Quinidine sulfate] | 21200 ± 4200
CCN(CC)CCOC(=O)c1ccc(N)cc1Cl [Chloroprocaine HCl] | 22300 ± 3800
CN(C)[C@@H]1C(O)=C(C(N)=O)C(=O)[C@@]2(O)C(O)=C3C(=O)c4c(O)cccc4[C@@](C)(O)[C@H]3C[C@@H]12 [Tetracycline HCl] | 27000 ± 3700

Some of these compounds in order of count of non-hydrogen atoms, ascending.
Compound | imaged cell count per well
O=C1c2cccc3c2[C@H](CCC3)CN1[C@@H]1CN2CCC1CC2 [Palonosetron HCl] | 24400 ± 4500
CC1(C)S[C@@H]2[C@H](NC(=O)[C@H](N)c3ccccc3)C(=O)N2[C@H]1C(=O)O [Ampicillin Trihydrate] | 27000 ± 9500
CN(C)[C@@H]1C(O)=C(C(N)=O)C(=O)[C@@]2(O)C(O)=C3C(=O)c4c(O)cccc4[C@@](C)(O)[C@H]3C[C@@H]12 [Tetracycline HCl] | 27000 ± 3700
